These are yes or no findings as the source states them, for the method shown.
Key:
[1] = target: Cx43CT Y265,313D (rat) (UniProt P08050); experiment: NMR titration; 15N-HSQC at 7 °C; 15N-labelled Cx43CT (WT, Y313D or Y265,313D) at constant 35 μM, unlabelled β-catenin, β-catenin CT or β-catenin ΔCT added up to 285 μM; 1x PBS pH 7.8, 2 mM dithiothreitol; KD from the fit of the decrease in signal intensity; both purified
[2] = target: Connexin43 carboxyl-terminal domain (V236–I382) (rat) (UniProt P08050); experiment: as above

The chains behind the UniProt entries cited, without tags or fusion partners. Where a name states a change or a piece, a line headed by the entry shows the natural chain unless it says otherwise. A line that says so, or that is headed by a name, gives the form on record, which may keep a tag or linker.
UniProt P08050: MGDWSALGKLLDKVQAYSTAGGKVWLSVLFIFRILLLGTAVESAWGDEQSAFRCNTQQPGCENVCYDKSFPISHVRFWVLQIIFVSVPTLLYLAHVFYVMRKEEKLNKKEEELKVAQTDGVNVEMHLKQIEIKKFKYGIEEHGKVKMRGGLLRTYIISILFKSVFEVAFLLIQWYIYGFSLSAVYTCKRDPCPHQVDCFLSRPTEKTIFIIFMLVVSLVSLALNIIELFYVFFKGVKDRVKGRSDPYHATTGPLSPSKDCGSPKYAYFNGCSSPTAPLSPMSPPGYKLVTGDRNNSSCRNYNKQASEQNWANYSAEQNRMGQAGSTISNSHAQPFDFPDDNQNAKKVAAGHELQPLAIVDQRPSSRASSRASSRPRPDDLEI
Cx43CT Y265,313D (P08050, form named): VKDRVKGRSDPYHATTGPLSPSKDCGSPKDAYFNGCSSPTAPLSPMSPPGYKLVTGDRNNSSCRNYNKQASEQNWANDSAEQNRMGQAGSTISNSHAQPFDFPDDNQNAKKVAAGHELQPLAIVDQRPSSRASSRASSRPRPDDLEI
UniProt P35222: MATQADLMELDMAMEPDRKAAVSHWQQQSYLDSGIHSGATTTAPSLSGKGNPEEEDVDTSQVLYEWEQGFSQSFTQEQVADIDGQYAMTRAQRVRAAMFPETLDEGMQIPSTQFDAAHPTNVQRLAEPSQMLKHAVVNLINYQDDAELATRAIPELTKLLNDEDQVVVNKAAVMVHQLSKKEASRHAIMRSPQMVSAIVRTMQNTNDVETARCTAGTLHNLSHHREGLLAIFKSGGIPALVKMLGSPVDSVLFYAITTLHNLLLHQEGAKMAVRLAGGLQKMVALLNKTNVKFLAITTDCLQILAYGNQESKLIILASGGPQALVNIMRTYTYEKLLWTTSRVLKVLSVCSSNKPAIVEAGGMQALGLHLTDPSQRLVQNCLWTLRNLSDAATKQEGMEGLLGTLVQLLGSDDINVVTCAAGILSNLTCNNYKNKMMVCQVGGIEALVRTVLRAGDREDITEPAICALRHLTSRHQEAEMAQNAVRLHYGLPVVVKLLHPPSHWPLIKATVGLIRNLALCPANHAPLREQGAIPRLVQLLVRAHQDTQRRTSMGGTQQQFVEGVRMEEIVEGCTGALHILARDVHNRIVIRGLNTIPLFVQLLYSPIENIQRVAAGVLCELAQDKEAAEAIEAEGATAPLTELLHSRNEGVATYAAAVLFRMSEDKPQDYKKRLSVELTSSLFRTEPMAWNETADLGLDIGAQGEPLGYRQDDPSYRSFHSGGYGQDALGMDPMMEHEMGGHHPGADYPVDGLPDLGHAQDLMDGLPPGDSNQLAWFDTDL

binding [1] | binding [2] | Substance
no binding (tested: up to 285 μM) |  | full-length β-catenin (from UniProt P35222 1-781)
no binding (tested: up to 285 μM) |  | β-catenin carboxyl-terminal (CT) domain (S681–L781) (from UniProt P35222 681-781) (domain or fragment)
 | no binding (tested: up to 285 μM) | β-catenin ΔCT (M1-S680) (from UniProt P35222 1-680) (domain or fragment)

From paper PMC6032326, “Connexin43 Carboxyl-Terminal Domain Directly Interacts with β-Catenin” (International Journal of Molecular Sciences, 2018)
